Results: the supplement of paper PMC8104966
The other results are listed elsewhere or left out. This data set is noisy: repeats of one test often differ as much as different tests do.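 U2OS cells carrying ACE2 were mixed with U2OS cells carrying full-length spike, and fusion was scored by imaging as the share of nuclei showing both cell types' fluorescent markers. A compound counts as an inhibitory hit when it is non-toxic and its fusion z-score falls below -3, meaning more than three standard deviations below the plate's DMSO wells.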

Each compound was assayed on U2OS ACE2 x SARS-CoV-2 spike co-culture (assay: cell-cell fusion (fraction fused) z-score vs plate DMSO control; higher = more fusion). Conditions: 30 µM; 5 h; toxicity class: non-toxic, passed QC.

SMILES	cell-cell fusion (z-score)
NS(=O)(=O)c1cc2c(cc1C(F)(F)F)NC(Cc1ccccc1)NS2(=O)=O (configuration not stated)	inactive: 3.39
O=[N+]([O-])c1ccc(CSc2ncnc3c2ncn3[C@@H]2O[C@H](CO)[C@H](O)C2O)cc1 (stereo partly drawn) [S-(4-Nitrobenzyl)-6-thioinosine]	inactive: 1.79
C[C@]12CC[C@H](O)CC1=CCC1C2CC[C@]2(C)C(=O)CC[C@@H]12 (some centres not stated)	inactive: 2.22
O=C(CCBr)N1CCN(C(=O)CCBr)CC1	inactive: 2.6
O=C(CCBr)N1CCN(C(=O)CCBr)CC1 [Pipobroman]	inactive: 2.38
Cc1c(N(C)CS(=O)(=O)[O-])c(=O)n(-c2ccccc2)n1C.[Na+]	inactive: 2.67
Cl.Cn1c(CCCC(=O)O)nc2cc(N(CCCl)CCCl)ccc21 [Bendamustine hydrochloride]	inactive: 3.13
Nc1nnc(-c2cccc(Cl)c2Cl)c(N)n1	inactive: 2.07
COc1ccc(O)c(C(C)(C)C)c1	inactive: 3.46
Cl.Nc1c2c(nc3ccccc13)CCCC2	inactive: 2.89
CCN(CC)c1ncnc2c1ncn2[C@@H]1O[C@H](COP(=O)([O-])OP(=O)([O-])C(Br)(Br)P(=O)([O-])O)[C@@H](O)[C@H]1O.[Na+].[Na+].[Na+]	inactive: 0.774
Nc1ccc(S(=O)(=O)Nc2ccnn2-c2ccccc2)cc1 [Sulfaphenazole]	inactive: 1.25
CO[C@H]1/C=C/O[C@@]2(C)Oc3c(C)c(O)c4c(c3C2=O)C2=NC3(CCN(CC(C)C)CC3)NC2=C(NC(=O)/C(C)=C\C=C\[C@H](C)[C@H](O)[C@@H](C)[C@@H](O)[C@@H](C)[C@H](OC(C)=O)[C@@H]1C)C4=O [Rifabutin]	inactive: 5.03
NS(=O)(=O)c1cc2c(cc1Cl)NC=NS2(=O)=O [Chlorothiazide]	inactive: 1.5
CCOP(=S)(OCC)Oc1ccc2c(C)c(Cl)c(=O)oc2c1	inactive: 3.21
COc1ccc2nc([S@@](=O)Cc3ncc(C)c(OC)c3C)[n-]c2c1.[Na+] [Esomeprazole Sodium]	inactive: 0.616
Cl.Nc1ccn(C2O[C@H](CO)[C@@H](O)C2(F)F)c(=O)n1 (some centres not stated) [Gemcitabine hydrochloride]	inactive: 1.4
Nc1ccc(C(=O)Oc2ccccc2)c(O)c1	inactive: 1.34
CC(C)CCCC(C)[C@H]1CCC2C3CC=C4C[C@@H](O)CC[C@]4(C)C3CC[C@@]21C (some centres not stated)	inactive: 1.96
CCC(=O)OC(OP(=O)(CCCCc1ccccc1)CC(=O)N1C[C@H](C2CCCCC2)C[C@H]1C(=O)[O-])C(C)C.[Na+] (some centres not stated) [Fosinopril sodium]	inactive: 2.56
CC(C)OC(=O)[C@H](C)N[P@](=O)(CO[C@H](C)Cn1cnc2c(N)ncnc21)Oc1ccccc1.CC(C)OC(=O)[C@H](C)N[P@](=O)(CO[C@H](C)Cn1cnc2c(N)ncnc21)Oc1ccccc1.O=C(O)/C=C/C(=O)O [Tenofovir alafenamide fumarate]	inactive: -0.234

At a glance, part of the list above:
SMILES	cell-cell fusion (z-score)
CCOP(=S)(OCC)Oc1ccc2c(C)c(Cl)c(=O)oc2c1	inactive: 3.21
COc1ccc2nc([S@@](=O)Cc3ncc(C)c(OC)c3C)[n-]c2c1.[Na+] [Esomeprazole Sodium]	inactive: 0.616

Next records:

SMILES	cell-cell fusion (z-score)
COc1ccc(-c2coc3cc(OC)ccc3c2=O)cc1	inactive: 2.21
C[C@]12C=CC(=O)C=C1CCC1C2[C@@H](O)C[C@@]2(C)C1CC[C@]2(O)C(=O)COC(=O)CCC(=O)O (some centres not stated)	inactive: -0.159
CC(C)(C#N)O[C@@H]1O[C@H](CO)[C@@H](O)[C@H](O)[C@H]1O	inactive: 1.23
NC(=O)c1cn(Cc2c(F)cccc2F)nn1 [Rufinamide]	inactive: 2.77
CC1NC(=O)NC1=O (configuration not stated)	inactive: 0.478
CC/C(=C(\c1ccccc1)c1ccc(OCCN(C)C)cc1)c1ccccc1.O=C(O)CC(O)(CC(=O)O)C(=O)O [Tamoxifen Z-isomer citrate]	inactive: 2.47
CC(=O)NC[C@H]1CN(c2ccc(N3CCOCC3)c(F)c2)C(=O)O1	inactive: 2.25
CC(=O)NC[C@H]1CN(c2ccc(N3CCOCC3)c(F)c2)C(=O)O1 [Linezolid]	inactive: 1.99
CC1=C(/C=C/C(C)=C/C=C/C(C)=C/C=C/C=C(C)/C=C/C=C(C)/C=C/C2=C(C)CCCC2(C)C)C(C)(C)CCC1 [beta-CAROTENE [2mM]]	inactive: 1.28
Cl.O=S(=O)(c1cccc2cnccc12)N1CCCNCC1 [Fasudil (HA-1077) HCl]	inactive: 2.94
N#C/C(=C\c1ccc(-c2cc(Cl)ccc2Cl)o1)C(=O)Nc1cccc2ncccc12	inactive: 2.03
C[N+]1(C)C2CCC1CC(OC(=O)C(CO)c1ccccc1)C2.[Br-] (configuration not stated) [Atropine methyl bromide]	inactive: 1.91
CCC(CC)CC1(C(=O)Nc2ccccc2SC(=O)C(C)C)CCCCC1 [Dalcetrapib(JTT-705)]	inactive: 1.64
C=CCc1ccc(OC(=O)c2ccccc2)c(OC)c1	inactive: 3.94
C[C@@H]1COCCN1c1cc(C2(S(C)(=O)=O)CC2)nc(-c2cccc3[nH]ccc23)n1	inactive: 0.881
Oc1ccc(Nc2nc(-c3ccc(Cl)cc3)cs2)cc1	active: -8.58
CS(=O)(=O)O.Cc1c(O)cccc1C(=O)N[C@@H](CSc1ccccc1)[C@H](O)CN1C[C@H]2CCCC[C@H]2C[C@H]1C(=O)NC(C)(C)C [Nelfinavir mesylate hydrate]	active: -6.04
C[C@H](Cc1ccccc1)Nc1ncnc2c1ncn2[C@@H]1O[C@H](CO)[C@H](O)C1O (stereo partly drawn) [R(-)-N6-(2-Phenylisopropyl)adenosine]	inactive: 1.44
COC(=O)C[C@H]1C(C)(C)C2(O)OC34CC2C(=O)[C@]1(C)C3CC[C@]1(C)C4=CC(=O)O[C@H]1c1ccoc1 (stereo partly drawn) [8beta-HYDROXYCARAPIN, 3,8-HEMIACETAL]	inactive: 2.06
CC(=O)Oc1ccc(/C=C/c2cc(OC(C)=O)cc(OC(C)=O)c2)cc1	inactive: 2.25
CCCOc1ccc(C(=O)OCCN(CC)CC)cc1N.Cl	inactive: 3.5
